The other results are listed elsewhere or left out. Shown are side measurements of this screen, not its main read-out; they come without a call. Compounds called inactive in the main read-out are mostly missing here. Words in brackets tell the shape of the fitted curve; partial curves, single points and poor fits give uncertain potencies.
Assay: IkB Signaling
Conditions: ABC-DLBCL IkBa-CBG/CBR dual luciferase ratio (green luciferase fused to IkBa over red control in OCI-Ly3 lymphoma cells), 4 h
How it was run: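 In this assay, an IκBα–CBG68 fusion accumulates when IKK-driven degradation is blocked; native CBR normalizes for cell number. OCI-Ly3 cells were treated 4 h with compound and doxycycline, then green and red light read after Chroma-Glo addition.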

[1] = measured here: control luc red channel unless noted
[2] = measured here: IkB-luc green channel
[3] = measured here: control luc red channel

SMILES: O=C(Nc1ccc(OC(F)(F)F)cc1)c1cc2c(=O)n3ccccc3nc2s1
- AC50 [1]: 1.26 µM [rising, full curve]

SMILES: CCS(=O)(=O)N1CCc2cc(C(=O)Nc3cc([N+](=O)[O-])ccc3C)ccc21
- AC50 [1]: 20 µM [falling, single point]

SMILES: c1csc(-c2ncc3ccccn23)c1
- AC50 [1]: 25.1 µM [rising, single point] [measured here: IkB-luc green channel]

SMILES: COc1ccc(C(=O)Nc2ccc3nc(SCC(=O)N4CCCC4)sc3c2)cc1
- AC50 [1]: 5.01 µM [falling, partial curve]

SMILES: CCCC(=O)Nc1nnc(SCc2cc(=O)n3ccccc3n2)s1
- AC50 [1]: 0.0316 µM [falling, full curve, poor fit]

SMILES: COc1ccccc1CCNC(=O)Cn1ccc2cc(S(=O)(=O)N3CCCCC3)ccc21
- AC50 [1]: 20 µM [falling, single point]

SMILES: O=C(Nc1cccc2nsnc12)c1ccc2c(c1)OCCO2
- AC50 [1]: 25.1 µM [falling, partial curve]

SMILES: Cn1c(=O)c(=O)n(C)c2cc(S(=O)(=O)N3CCCC3C(=O)Nc3cccc(F)c3)ccc21 (configuration not stated)
- AC50 [1]: 39.8 µM [falling, single point]

SMILES: CCS(=O)(=O)n1nc(-c2ccco2)nc1NCc1ccc(C(C)C)cc1
- AC50 [1]: 25.1 µM [falling, partial curve]

SMILES: O=C(CSc1nc(-c2ccc(F)cc2)cs1)N1CCN(C(=O)c2ccco2)CC1
- AC50 [1]: 15.8 µM [falling, partial curve]

SMILES: CC(C)c1cc(C(=O)NCc2ccc(F)cc2)no1
- AC50 [1]: 0.251 µM [rising, partial curve]

SMILES: CCCCn1c(SCC(=O)Nc2cccc(OC)c2)nc2ccc(N3CCOCC3)cc2c1=O
- AC50 [1]: 6.31 µM [falling, partial curve]

SMILES: Cc1cc(C)nc(SC2=CS(=O)(=O)c3ccccc32)n1
- AC50 [1]: 3.16 µM [rising, full curve] [measured here: IkB-luc green channel]

SMILES: CC(=O)Nc1ccc(NC(=O)C(NC(=O)C2CCC(C)CC2)C(C)C)cc1 (configuration not stated)
- AC50 [1]: 0.0251 µM [falling, full curve]

SMILES: O=C(Nc1nccs1)c1ccc(S(=O)(=O)NCC2CCCCC2)cc1
- AC50 [1]: 3.98 µM [falling, partial curve]

SMILES: CCCc1cc(=O)n2[nH]c(SCc3ccccc3)nc2n1
- AC50 [1]: 20 µM [falling, partial curve]

SMILES: Cc1ccc(-n2cnc3cc(C(=O)NC4CCCCCC4)ccc32)c(C)c1
- AC50 [1]: 25.1 µM [falling, partial curve]

SMILES: COc1ccc(C)cc1NC(=O)C1CCC(CNS(=O)(=O)c2ccc3c(c2)CCCC(=O)N3)CC1 (configuration not stated)
- AC50 [1]: 31.6 µM [falling, single point]

SMILES: CCc1ccc(Cn2nnc3c(=O)[nH]c(C4CCCN(C(=O)c5cccc(Cl)c5)C4)nc32)cc1 (configuration not stated)
- AC50 [1]: 2 µM [rising, partial curve, poor fit]

SMILES: C/C=C/COC(=O)c1[nH]c2c(c1C)C(=O)CC(c1ccco1)C2 (configuration not stated)
- AC50 [2]: 0.631 µM [rising, full curve]
- AC50 [3]: 0.126 µM [rising, full curve]

SMILES: CCOC(=O)C1CCCN(C(=O)C2CCN(Cc3nc(-c4ccc(Cl)cc4)oc3C)CC2)C1 (configuration not stated)
- AC50 [1]: 15.8 µM [falling, partial curve]

SMILES: COc1ccccc1NC(=O)N(Cc1ccccc1)c1ccccn1
- AC50 [1]: 31.6 µM [falling, partial curve]

SMILES: NC(=O)CSc1nc2cc3c(cc2c(=O)n1CCCCCC(=O)NCc1ccc2c(c1)OCO2)OCO3
- AC50 [1]: 39.8 µM [falling, single point]

SMILES: COc1ccc(OC)c(NC(=O)CSc2c3c(nc4cc(Cl)ccc24)CCCC3)c1
- AC50 [1]: 25.1 µM [falling, single point]

SMILES: O=C(Nc1ccccc1C(F)(F)F)C1(S(=O)(=O)c2ccc(Cl)cc2)CC1
- AC50 [1]: 0.794 µM [falling, full curve, poor fit]

SMILES: COc1ccc(-c2cn3c(n2)sc2cc(C(=O)NCC(C)c4ccccc4)ccc23)cc1 (configuration not stated)
- AC50 [1]: 12.6 µM [falling, partial curve]

SMILES: CCCCCCNC(=O)CCc1c(C)nc2nc(-c3cc(OC)cc(OC)c3)nn2c1C
- AC50 [1]: 25.1 µM [falling, single point]

SMILES: Cc1ccc(C(=O)c2cn(Cc3cc(C)ccc3C)c3nc(C)ccc3c2=O)cc1
- AC50 [1]: 31.6 µM [falling, partial curve]

SMILES: Cc1ccc(-c2noc(CN(C(=O)c3cccc(Br)c3)C(C)C)n2)cc1
- AC50 [1]: 25.1 µM [falling, partial curve]

SMILES: COc1ccc2[nH]cc(C(=O)CN3CCN(C/C=C/c4ccccc4)CC3)c2c1
- AC50 [1]: 20 µM [falling, partial curve]

SMILES: CC1Cn2c(C(=O)NCCc3ccc(Cl)cc3)cc3cccc(c32)S1 (configuration not stated)
- AC50 [1]: 25.1 µM [falling, partial curve]

SMILES: Cc1c(C(=O)N2CCCC2)oc2c1-c1nn(CC(=O)NCc3ccccc3Br)cc1CC2
- AC50 [1]: 15.8 µM [falling, partial curve]

SMILES: COc1ccc(NC(=O)CCS(=O)(=O)c2nc(-c3ccc4c(c3)OCO4)cc(C(F)(F)F)n2)cc1
- AC50 [1]: 12.6 µM [falling, partial curve]

SMILES: COc1ccc(C)cc1NC(=O)CCc1c(C)nn(-c2ccc(N3CCCCC3)nn2)c1C
- AC50 [1]: 20 µM [falling, single point]

SMILES: CSc1ccc(C2CC(=O)Oc3c2c(=O)n(C)c2ccccc32)cc1 (configuration not stated)
- AC50 [1]: 39.8 µM [falling, single point]

SMILES: CC1Cc2cc(-c3csc(NC(=O)Cc4cccs4)n3)ccc2N1S(C)(=O)=O (configuration not stated)
- AC50 [2]: 3.16 µM [falling, full curve]
- AC50 [3]: 3.16 µM [falling, full curve]

SMILES: N#Cc1nc(-c2ccc(OCc3ccccc3)cc2)oc1NCCCn1ccnc1
- AC50 [1]: 25.1 µM [falling, partial curve]

SMILES: COc1ccc(-c2cc(C(=O)Oc3ccc(C)cc3)c3cc(C)ccc3n2)cc1
- AC50 [1]: 2 µM [falling, full curve]

SMILES: Cc1c(NC(=O)C2CCCN2S(=O)(=O)c2ccc(Cl)cc2)c(=O)n(-c2ccccc2)n1C (configuration not stated)
- AC50 [1]: 6.31 µM [falling, single point]

SMILES: Nc1ccc(O)c(-c2nc3ccccc3s2)c1
- AC50 [1]: 15.8 µM [falling, partial curve]

SMILES: Cc1ccccc1CNC(=O)Cc1ccc(NC(=O)N2CCCCc3ccccc32)cc1
- AC50 [1]: 39.8 µM [falling, single point]

SMILES: CCOc1ccc(C(=O)c2cn(CC(=O)Nc3cccc(OC)c3)c3cc4c(cc3c2=O)OCCO4)cc1
- AC50 [1]: 15.8 µM [falling, partial curve]

SMILES: COc1ccccc1CNC(=O)C(C)n1ccc2cc(S(=O)(=O)N3CCCC3)ccc21 (configuration not stated)
- AC50 [1]: 10 µM [falling, partial curve]

SMILES: COc1ccc(CNC(=O)c2ccc3nc(CCc4ccccc4)oc3c2)cc1
- AC50 [1]: 0.0316 µM [rising, full curve]

SMILES: Cc1ccc(NC(=O)CSc2nc3c([nH]c4ccccc43)c(=O)n2-c2ccccc2)cc1Cl
- AC50 [1]: 31.6 µM [falling, partial curve, poor fit]

SMILES: Cc1ccc(C2Nc3cc(C)c(C)cc3-n3c(-c4ccccc4)c4c(=O)n(C)c(=O)n(C)c4c32)o1 (configuration not stated)
- AC50 [1]: 10 µM [falling, partial curve]

SMILES: Cc1cccc(N2CCN(C(=O)C3CCN(C(=O)c4cc5sccc5n4C)CC3)CC2)c1C
- AC50 [1]: 31.6 µM [falling, single point]

SMILES: COc1cc(-c2nc(SCC(=O)Nc3ccc(C)cc3)c(-c3ccc(F)cc3)[nH]2)cc(OC)c1OC
- AC50 [1]: 3.98 µM [falling, full curve]

SMILES: COc1ccccc1N1CCN(C(=O)c2cnn(-c3cccc(Cl)c3)c2C2CCN(C(=O)OC(C)(C)C)CC2)CC1
- AC50 [1]: 15.8 µM [falling, partial curve]

SMILES: CCc1ccccc1NC(=O)c1cc(S(=O)(=O)N2CCc3ccccc32)ccc1F
- AC50 [1]: 10 µM [falling, partial curve]

SMILES: COc1ccccc1CNc1nc(-c2ccco2)nn1C(=O)c1cc(OC)c(OC)c(OC)c1
- AC50 [1]: 25.1 µM [falling, single point]

SMILES: Cc1ccccc1CNC(=O)C1=Cc2ccccc2OC1
- AC50 [1]: 39.8 µM [falling, single point]

SMILES: Cc1ccc(-c2nnc(Nc3ccc(OC(F)(F)Cl)cc3)c3ccccc23)cc1S(=O)(=O)NC(C)(C)CO
- AC50 [1]: 7.94 µM [falling, partial curve]

SMILES: Cc1nc2scc(C)n2c(=O)c1S(=O)(=O)Nc1ccc(N2CCN(S(C)(=O)=O)CC2)cc1
- AC50 [1]: 6.31 µM [falling, partial curve]

SMILES: CCCCn1c(=N)c(S(=O)(=O)c2ccc(C)cc2)cc2c(=O)n3cc(C)ccc3nc21
- AC50 [1]: 0.0316 µM [rising, full curve, poor fit]

SMILES: CN(C)C1(CNC(=O)COc2ccc([N+](=O)[O-])cc2)CCCCC1
- AC50 [1]: 2.51 µM [rising, partial curve]

SMILES: CCn1c(CN2CCOCC2)nc2cc(NC(=O)c3ccccc3[N+](=O)[O-])ccc21
- AC50 [1]: 6.31 µM [falling, partial curve]

SMILES: CCN(c1cccc(C(F)(F)F)c1)S(=O)(=O)c1ccc2c(c1)CCN2C(=O)C1CC1
- AC50 [1]: 15.8 µM [falling, partial curve]

SMILES: COc1cccc(-n2cc(C(=O)Nc3cccc(C(F)(F)F)c3)c3ccccc3c2=O)c1
- AC50 [1]: 20 µM [falling, partial curve]

SMILES: CC(=O)Nc1cc(-c2nc3cc(Cl)ccc3o2)ccc1C
- AC50 [1]: 25.1 µM [falling, partial curve, poor fit]

Reference: PubChem BioAssay AID445 (National Center for Advancing Translational Sciences (NCATS), 2006)
